PubChem BioAssay AID504774 – Drosophila RNAi Screening Center – 2011
The screen tested about 23,000 reagents; this is a random part of those with a known target gene and a result. 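Values are quantile-normalised luminescence on an arbitrary scale; higher means more cells surviving MMS.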 The numbers tell different reagents against one gene apart. A plus sign joins genes that one reagent is predicted to hit.

- Aim: 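Fly genes whose loss alters survival after alkylation damage to DNA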 (primary screen)
- System: Drosophila Kc167 cells
- Knock-down reagent: long dsRNA against Drosophila genes, about 0.25 µg dsRNA per well
- Timing: about 6 days: 3 days knock-down, then 3 days with or without MMS
- Treatment: methyl methanesulphonate 0.004% (w/v) for 3 days after knock-down
- Measured: 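ATP-dependent luminescence as a measure of live cells in MMS-exposed wells, quantile normalised within each plate, with replicate values also given as a mean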
- Reading the numbers: mean viability with MMS and viability with MMS: higher = more surviving cells after MMS

gene | reagent no. | mean viability with MMS | viability with MMS, replicate 1 | viability with MMS, replicate 2
CG13613 (GeneID 42910) | 1 | 3.55e6 | 4.06e6 | 3.99e6
Prdm13 (GeneID 38713) | 1 | 3.57e6 | 4.10e6 | 4.01e6
bora (GeneID 40031) | 1 | 3.48e6 | 3.96e6 | 3.93e6
Sgs1 (GeneID 33701) | 1 | 3.64e6 | 4.10e6 | 4.11e6
Sgs1 (GeneID 33701) | 2 | 3.37e6 | 3.85e6 | 3.84e6
CG32271 (GeneID 38392) | 1 | 3.52e6 | 3.90e6 | 4.07e6
Ser (GeneID 43275) | 1 | 3.67e6 | 4.16e6 | 4.15e6
CG11123 (GeneID 35664) | 1 | 3.50e6 | 4.02e6 | 3.94e6
sev (GeneID 32039) | 1 | 3.52e6 | 4.02e6 | 3.94e6
betaNACtes2 (GeneID 32386) | 1 | 3.67e6 | 4.17e6 | 4.09e6
CG9855 (GeneID 40556) | 1 | 3.59e6 | 4.01e6 | 4.12e6
Mal-A6 (GeneID 246565) | 1 | 3.74e6 | 4.06e6 | 4.27e6
flip (GeneID 40539) | 1 | 3.62e6 | 4.03e6 | 4.17e6
Vha16-2 (GeneID 39282) | 1 | 3.60e6 | 3.96e6 | 4.17e6
Aldh7A1 (GeneID 40097) | 1 | 3.48e6 | 3.95e6 | 3.92e6
CG13907 (GeneID 38104) | 1 | 3.58e6 | 4.03e6 | 4.09e6
eff (GeneID 41785) | 1 | 3.34e6 | 3.80e6 | 3.76e6
zetaCOP (GeneID 39862) | 1 | 3.43e6 | 3.97e6 | 3.76e6
Sytbeta (GeneID 39630) | 1 | 3.81e6 | 4.20e6 | 4.31e6
Sytbeta (GeneID 39630) | 2 | 3.50e6 | 4.00e6 | 3.92e6
CG12914 (GeneID 36078) | 1 | 3.57e6 | 4.00e6 | 4.07e6
Tie (GeneID 38559) | 1 | 3.47e6 | 4.11e6 | 3.74e6
Tie (GeneID 38559) | 2 | 3.41e6 | 3.87e6 | 3.83e6
scro (GeneID 3355151) | 1 | 3.33e6 | 3.86e6 | 3.67e6
scro (GeneID 3355151) | 2 | 3.56e6 | 4.01e6 | 4.07e6
Atx-1 (GeneID 31624) | 1 | 3.68e6 | 4.30e6 | 4.05e6
insb (GeneID 36967) | 1 | 3.48e6 | 3.95e6 | 3.92e6
CG13332 (GeneID 36504) | 1 | 3.35e6 | 3.94e6 | 3.24e6
CG9083 (GeneID 37982) | 1 | 3.58e6 | 4.01e6 | 4.15e6
GATAd (GeneID 34395) | 1 | 3.45e6 | 4.02e6 | 3.77e6
RhoGAP102A (GeneID 43781) | 1 | 3.51e6 | 3.97e6 | 4.00e6
RhoGAP102A (GeneID 43781) | 2 | 3.55e6 | 3.90e6 | 4.16e6
CG32984 (GeneID 34218) | 1 | 3.93e6 | 4.21e6 | 4.61e6
CG12835 (retired record) (GeneID 35632) | 1 | 3.45e6 | 3.98e6 | 3.87e6
Decay (GeneID 42008) | 1 | 3.19e6 | 3.67e6 | 3.56e6
MetRS (GeneID 37177) | 1 | 3.26e6 | 3.86e6 | 3.83e6
CG7794 (GeneID 42159) | 1 | 3.56e6 | 4.07e6 | 4.00e6
rad (retired record) (GeneID 32251) | 1 | 3.64e6 | 4.15e6 | 4.08e6
rad (retired record) (GeneID 32251) | 2 | 3.36e6 | 3.90e6 | 3.84e6
Dhx15 (GeneID 35654) | 1 | 3.47e6 | 3.92e6 | 4.11e6
iotaTry (GeneID 36223) | 1 | 3.48e6 | 3.97e6 | 3.98e6
betaTub65B (GeneID 117406) | 1 | 3.69e6 | 4.24e6 | 4.14e6
CG30109 (GeneID 246461) | 1 | 3.57e6 | 4.13e6 | 3.94e6
CG13314 (GeneID 39030) | 1 | 3.43e6 | 3.88e6 | 3.88e6
Ubr3 (GeneID 31713) | 1 | 3.50e6 | 4.17e6 | 3.96e6
Ubr3 (GeneID 31713) | 2 | 3.56e6 | 4.03e6 | 4.07e6
LysD + LysC (retired record) | 1 | 3.78e6 | 4.24e6 | 4.15e6
LysD + LysC (retired record) | 2 | 3.69e6 | 4.21e6 | 4.05e6
Ir40a (GeneID 35449) | 1 | 3.61e6 | 4.18e6 | 4.01e6
Ir40a (GeneID 35449) | 2 | 3.52e6 | 4.03e6 | 3.94e6
Slc25A46a (GeneID 32564) | 1 | 3.53e6 | 3.95e6 | 3.98e6
CG31959 (retired record) (GeneID 326180) | 1 | 3.27e6 | 3.86e6 | 3.83e6
fbp (GeneID 35265) | 1 | 3.71e6 | 4.08e6 | 4.38e6
ninaD (GeneID 326160) | 1 | 3.45e6 | 3.90e6 | 3.93e6
OstDelta (GeneID 37029) | 1 | 3.53e6 | 4.00e6 | 4.01e6
Tim17b2 (GeneID 44381) | 1 | 3.69e6 | 4.10e6 | 4.20e6
CG14370 (GeneID 41659) | 1 | 3.56e6 | 4.14e6 | 3.96e6
CG14736 (GeneID 41466) | 1 | 3.46e6 | 3.95e6 | 3.94e6
Non1 (GeneID 35963) | 1 | 3.49e6 | 4.02e6 | 3.87e6
Prosbeta4 (GeneID 34999) | 1 | 3.37e6 | 3.79e6 | 3.81e6
prel (GeneID 35969) | 1 | 3.75e6 | 4.23e6 | 4.27e6
CG12708 (GeneID 32502) | 1 | 3.76e6 | 4.14e6 | 4.25e6
B-H1 (GeneID 32724) | 1 | 3.11e6 | 3.54e6 | 3.51e6
B-H1 (GeneID 32724) | 2 | 3.74e6 | 4.17e6 | 4.21e6
CG6432 (GeneID 42901) | 1 | 3.56e6 | 4.01e6 | 4.07e6
CG11257 (GeneID 37227) | 1 | 3.49e6 | 3.85e6 | 4.05e6
sgg (GeneID 31248) | 1 | 3.66e6 | 4.04e6 | 4.17e6
sgg (GeneID 31248) | 2 | 3.61e6 | 3.94e6 | 4.19e6
sgg (GeneID 31248) | 3 | 3.75e6 | 4.36e6 | 4.09e6

Part of the list above, reformatted:
| gene | reagent no. | mean viability with MMS | viability with MMS, replicate 1 | viability with MMS, replicate 2 |
| --- | --- | --- | --- | --- |
| Ubr3 (GeneID 31713) | 2 | 3.56e6 | 4.03e6 | 4.07e6 |
| LysD + LysC (retired record) | 1 | 3.78e6 | 4.24e6 | 4.15e6 |
| LysD + LysC (retired record) | 2 | 3.69e6 | 4.21e6 | 4.05e6 |
| Ir40a (GeneID 35449) | 1 | 3.61e6 | 4.18e6 | 4.01e6 |
| Ir40a (GeneID 35449) | 2 | 3.52e6 | 4.03e6 | 3.94e6 |
| Slc25A46a (GeneID 32564) | 1 | 3.53e6 | 3.95e6 | 3.98e6 |
| CG31959 (retired record) (GeneID 326180) | 1 | 3.27e6 | 3.86e6 | 3.83e6 |
| fbp (GeneID 35265) | 1 | 3.71e6 | 4.08e6 | 4.38e6 |
| ninaD (GeneID 326160) | 1 | 3.45e6 | 3.90e6 | 3.93e6 |
| OstDelta (GeneID 37029) | 1 | 3.53e6 | 4.00e6 | 4.01e6 |
| Tim17b2 (GeneID 44381) | 1 | 3.69e6 | 4.10e6 | 4.20e6 |
